From patent publication US8324173B2, “Peptides useful as dual caspase-2/-6 inhibitors and their biological applications” (Chiesi Farmaceutici S.p.A., priority 2004, dated 2012)
Part of at least one peptide drawing is inferred or uncertain, most often the ends. Peptide text beside a SMILES is read from it.

Target: T1, human recombinant caspase-2 (Homo sapiens, UniProt P42575)
T1 construct: purchased BIOMOL
T1 sequence (P42575 170-333 limits assumed): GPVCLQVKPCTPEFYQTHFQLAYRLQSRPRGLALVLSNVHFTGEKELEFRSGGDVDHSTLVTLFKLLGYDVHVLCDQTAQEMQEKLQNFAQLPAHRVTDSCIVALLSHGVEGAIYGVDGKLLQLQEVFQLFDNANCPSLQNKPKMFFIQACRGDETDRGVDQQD
T1 sequence (P42575 348-452 limits assumed): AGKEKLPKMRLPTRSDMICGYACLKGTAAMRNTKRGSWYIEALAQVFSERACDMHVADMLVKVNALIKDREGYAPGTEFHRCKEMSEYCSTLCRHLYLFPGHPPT
Test: In vitro caspase-2 cleavage assay (Ac-VDVAD-AMC substrate)
Format: biochemical
Set-up: key: group 1 referred to inhibitors that were relatively more active than VDVAD(SEQ ID NO:9)-based inhibitors against caspase-2 at lower doses, but with similar IC50 values; group 2 referred to VDVAD(SEQ ID NO:9)-based inhibitor with characteristic sigmoid dose-response; group 3 referred to pentapetidic-based inhibitors that were less active than VDVAD(SEQ ID NO:9)-based inhibitors against caspase-2 at lower doses and that exhibited higher IC50
Details: Table 4
Method: Newly designed inhibitors (Ac-LDEAD(SEQ ID NO:7)-CHO, Ac-VDEAD(SEQ ID NO:1)-CHO . . . ) were compared to Ac-VDVAD(SEQ ID NO:9)-CHO in in vitro caspase-2 cleavage assay according to the following protocol (FIG. 8). Human recombinant caspases (25-50 U; QuantiZyme™ Assay System, BIOMOL, Plymouth, Pa., USA) were pre-incubated 30 min with inhibitors (0.005-2 μM) in final 100 μl final assay buffer (50 mM HEPES, pH 7.4, 100 mM NaCl, 0.1% CHAPS, 10 mM DTT, 1 mM EDTA, 10% glycerol) and then mixed with 200 μM of the fluorogenic caspase substrates (BIOMOL) Ac-VDVAD(SEQ ID NO:9)-AMC. An IC50 value corresponding to the concentration that could inhibit 50% of caspase activity was determined from the dose-response sigmoid curve. The cleavage of AMC-based substrates by human recombinant caspases 1-10 was measured after 2 h at 37° C. on a fluorescence microplate reader by monitoring emission at 510 nm upon excitation at 405 nm.

CC(=O)N[C@H](C(=O)N[C@@H](CC(=O)O)C(=O)N[C@@H](CCC(=O)O)C(=O)NCC(=O)N[C@H](C=O)CC(=O)O)C(C)C [VDEGD] (Ac-VDEGD-aldehyde; N-terminus and C-terminus assumed)
Group (pattern of caspase-2 inhibition curve): 3
